According to publication PMC6464244, “The fungal ribonuclease-like effector protein CSEP0064/BEC1054 represses plant immunity and interferes with degradation of host ribosomal RNA”:
No constants are given. Whether binding was seen depends on the method and setting.

Molecular target: recombinant CSEP0064/BEC1054 (mature form, residues 22-118) (Blumeria graminis f.sp. hordei) (UniProt N1JJ94)
Test: 1H-15N HSQC NMR spectrum; 15N,13C-labelled protein at 300 μM in 20 mM phosphate pH 7.0, 150 mM NaCl, 10% 2H2O, 308 K, 600 MHz; both purified

B1: recombinant CSEP0064/BEC1054 (mature form, residues 22-118) (protein, UniProt N1JJ94 22-118)
chain: AAYWDCDGTEIPERNVRAAVVLAFNYRKESFHGYPATFIIGSTFSGVGEVRQFPVEDSDANWQGGAVKYYILTNKRGSYLEVFSSVGSGNKCTFVEG
binding: no binding (tested: 300 μM)
